According to US20210364534A1 (THE BOARD OF TRUSTEES OF THE UNIVERSITY OF ILLINOIS, priority 2018, published 2021):

Test: general procedure: Fmoc solid-phase peptide synthesis
Details: whole synthesis, TFA salt

Substance: DS(PO3)HEKRHHGYRRKFHEKHHSHREFPFYGDYGSNYLYDN (DSHEKRHHGYRRKFHEKHHSHREFPFYGDYGSNYLYDN; phosphorylated serine; MOD_RES (2)..(2) PHOSPHORYLATION)
- final purity (method not given): >95%
